Assays:
[1] = tested on: human BJ fibroblast cell line; assay: MTT reduction assay, BJ fibroblasts; format: cell-based; details: 72 h
Experimental: (§1) The cytotoxic activity was measured against the melanoma A375 tumor cell line (ECACC) and the human BJ fibroblast cell line (ATCC) using an MTT reduction assay. The selectivity index (SI) was calculated using the following formula: SI = IC50 (BJ)/ IC50 (A375).
(§2) The A375 cell line was purchased from the European Collection of Authenticated Cell Cultures (ECACC, Salisbury, UK) and the BJ human fibroblast cell line from the American Type Culture Collection (ATCC, Manassas, VA, USA). All the cell lines were grown as a monolayer in standard conditions: 37 °C, 100% humidity, under an atmosphere of 5% CO2. The A375 cells were cultured in Dulbecco’s Modified Eagle Medium supplemented with 15% fetal calf serum and 50 IU/mL penicillin/streptomycin. The BJ cell line was grown in EMEM with EBSS, NEAA and sodium pyruvate with L-Glutamine supplemented, 10% fetal bovine serum and 50 IU/mL penicillin/streptomycin.
(§3) Next, the cells were seeded in 96-well plates at a density of 5000 cells per well and incubated overnight to reach the logarithmic growth phase. […] The absorbance was then measured at 570 nm using a SPECTROstar Nano microplate reader (BMG Biotech Inc., Cary, NC, USA)/Tecan Spark 10M. The mean value from three independent BJ and A375 cell cultures was taken to calculate the cell viability, expressed as a percentage of the control values, i.e., untreated cells assumed as 100%.

[2] = tested on: melanoma A375 tumor cell line; assay: MTT reduction assay, A375 melanoma cells; format: cell-based, human
Experimental: as §1
as §2, with “The A375 cells were cultured in Dulbecco’s Modified Eagle Medium supplemented with 15% fetal calf serum and 50 IU/mL penicillin/streptomycin.” left out
as §3, with “phase. […] After 72 h, 10 µL of MTT solution (5 g/L) was added into each well and incubated for an additional four hours.” for “phase.”

IC50 ([2]; Homo sapiens, A-375, MTT, 72 h): 12.8 ± 1.1 µM
SMILES: Clc1ccc(COC(Cn2ccnc2)c2ccc(Cl)cc2Cl)c(Cl)c1 (stereo not drawn) [MCZ, miconazole]
IC50 [1]: 27.1 ± 0.8 µM | Selectivity index SI = IC50 (BJ)/ IC50 (A375) ([2]; BJ vs A375, 72 h): 2.12
